# Laboratory results as given in PubChem BioAssay AID504444 (National Center for Advancing Translational Sciences (NCATS), 2011).
# “And” between values parts separate entries of the source, which are not always exact repeats. Identical values can stand only once. Among all 360,000 compounds or so, about 7,500 (2.1%) were called active. Inconclusive means that the source gave no clear call. Such entries were picked first, then a sample of the others. Calls come from the whole dose curve; as a rule, active = well fitted inhibition curve with a large enough effect; inconclusive = small, poorly fitted or top-dose-only effect, or effect the other way; inactive = flat fitted curve, though single readings scatter. Potencies beside an inconclusive call are fits to weak or partial responses and may not hold up.
# Test: Nrf2 qHTS screen for inhibitors; note: nearly all actives have a fitted effect of over 60% in size
# Conditions: A549 ARE-Fluc reporter, luciferase luminescence, 18-24 h; series mostly up to 46 µM
# Method in brief: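 Nrf2 function is reported as luminescence of an ARE-controlled luciferase in A549 cells. Compounds were tested at several concentrations, and a CellTiter-Fluor read on the same wells flagged cytotoxicity.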
# Potency is the fitted concentration of half-maximal effect.
row,Compound,Potency
1,FC(F)(F)c1cccc(NC(=S)NCc2ccc(Cl)cc2)c1,"inconclusive: 29.1 µM [falling, single point]"
2,O=C(COc1ccccc1)Nc1nnc(-c2ccc3c(c2)CCCC3)o1,"inconclusive: 3.26 µM [activator, partial curve, poor fit]"
3,O=C(O)CSc1nnc(COc2cccc3cccnc23)n1-c1ccc(Cl)cc1,"inconclusive: 1.3 µM [activator, partial curve, poor fit]"
4,O=C(NCc1ccco1)c1ccc(COc2ccccc2Cl)cc1,"inconclusive: 5.8 µM [falling, full curve]"
5,COc1ccc([N+](=O)[O-])cc1NC(=O)c1ccc(CN(c2ccc(C)c(C)c2)S(C)(=O)=O)cc1,"inconclusive: 7.31 µM [falling, partial curve]"
6,CC(=O)NC1C(=O)N(CCN2CCOCC2)c2ccc(F)cc21 (stereo not drawn),inactive
7,CCCCCC(=O)NNC(=O)c1c(O)c2ccccc2n(CC)c1=O,"inconclusive: 29.1 µM [falling, single point]"
8,O=C(c1cccc(S(=O)(=O)N2CCCCC2)c1)N(CCc1ccccc1)Cc1ccccc1,"inconclusive: 23.1 µM [falling, single point]"
9,Cc1cccc(C(=O)N[C@H](C(=O)Nc2ccc(C)c(S(=O)(=O)N3CCOCC3)c2)C(C)C)c1,"inconclusive: 10.3 µM [falling, partial curve]"
10,CCc1ccc(-n2nc(C)c3c(C)cc(=O)n(CC(=O)N4CCCc5ccccc54)c32)cc1,"inconclusive: 29.1 µM [activator, single point]"
11,Cc1cccnc1NC(=O)c1ccc2c(c1)OCO2,"inconclusive: 25.9 µM [activator, single point]"
12,O=C(Nc1ccc(N2CCN(C(=O)c3ccc(Cl)cc3)CC2)cc1)c1cccs1,"inconclusive: 16.4 µM [falling, partial curve, poor fit]"
13,COc1ccccc1N(CC(=O)Nc1ccccc1C)S(C)(=O)=O,"inconclusive: 0.231 µM [falling, partial curve, poor fit]"
14,CC(=O)Nc1nc2ccccc2n1Cc1ccccc1Cl,"inconclusive: 3.26 µM [activator, full curve, poor fit]"
15,COc1ccc(-n2nc3c(c2NC(=O)c2c(-c4ccccc4Cl)noc2C)CS(=O)(=O)C3)cc1,inactive
16,CCCCNC(=S)NCCCN(Cc1ccc(Cl)c(Cl)c1)c1ccc(Br)cn1,"inconclusive: 23.1 µM [falling, partial curve]"
17,Cc1cccc(NC(=O)CCS(=O)(=O)c2ccc3c(c2)n(C)c(=O)c(=O)n3C)c1C,"inconclusive: 29.1 µM [activator, single point]"
18,CCOC(=O)N1CCN(C(=O)c2ccc3c(=O)n(CCC4=CCCCC4)c(=O)[nH]c3c2)CC1,"inconclusive: 23.1 µM [falling, single point]"
19,Clc1ccc(/C(Cc2nc3ccccc3[nH]2)=N\Nc2ccccc2)cc1,"inconclusive: 2.91 µM [activator, partial curve]"
20,COc1cc(Cl)c(C)cc1NC(=O)CSc1nnc(-c2ccco2)n1CC(C)C,"inconclusive: 32.6 µM [falling, single point]"
21,COc1ccc(N2CCN(C(=O)CCS(=O)(=O)c3ccc4c(c3)NC(=O)C(C)S4)CC2)cc1 (stereo not drawn),inactive

row,Compound,Potency
1,CCN1C(=O)CC(N2CCC(C(=O)N3CCCCCC3)CC2)C1=O (stereo not drawn),"inconclusive: 1.64 µM [falling, partial curve, poor fit]"
2,CCc1cccc(NC(=O)C2CCN(C(=O)c3cnn(-c4ccccc4)c3-n3cccc3)CC2)c1,"inconclusive: 29.1 µM [falling, single point]"
3,COc1ccc2[nH]c3c(C)c4cc[n+](C)cc4c(C)c3c2c1,active: 8.2 µM
4,CN1CCN(C(=O)c2cc(COc3ccccc3)on2)[C@@H](c2ccccc2)C1,"inconclusive: 8.2 µM [activator, partial curve]"
5,Nc1nc(Nc2ccccc2F)sc1C(=O)c1ccc(Cl)cc1,"inconclusive: 16.4 µM [activator, single point]"
6,Clc1ccc(-c2nsc(N3CCOCC3)n2)c(Cl)c1,"inconclusive: 0.731 µM [activator, full curve]"
7,Cc1ccc(-n2nc(CO)c(C(=O)NCc3ccccn3)n2)cc1C,"inconclusive: 29.1 µM [activator, single point]"
8,Cc1cc2n(n1)C(c1cn(-c3ccccc3)nc1C)Nc1c(C)cccc1-2 (stereo not drawn),"inconclusive: 6.51 µM [falling, single point]"
9,Nc1cccc(CCc2nc3ccccc3[nH]2)c1,"inconclusive: 18.4 µM [activator, partial curve]"
10,Cc1ccc(-c2cc3c(n2-c2ccc(C(=O)O)cc2)CCCC3=O)cc1,inactive
11,S=C(c1ccc(-c2ccc(Br)cc2)o1)N1CCCCC1,"inconclusive: 10.3 µM [activator, partial curve]"
12,CCN=c1scc(-c2ccc3c(c2)NC(=O)CO3)n1N=C1CCCC1,active: 9.2 µM and active: 16.4 µM
13,CSc1nc2ccc(NC(=O)c3nn(C(C)C)c(=O)c4ccccc34)cc2s1,"inconclusive: 20.6 µM [falling, single point]"
14,COc1ccccc1N(C)S(=O)(=O)c1ccc(C(=O)Nc2nccs2)cc1,"inconclusive: 18.4 µM [falling, single point]"
15,Cc1ccc(-n2cc(C(=O)c3ccccc3O)cn2)cc1,"inconclusive: 3.26 µM [activator, partial curve]"
16,COc1ccc(NC(=O)c2cc(Cl)ccc2Cl)c([N+](=O)[O-])c1,inactive
17,Cc1ccc(-n2nnc(-c3cnc4ccccc4c3)n2)cc1,"inconclusive: 0.82 µM [activator, full curve, poor fit]"
18,CCn1cc(C(=O)OCC(=O)NCc2ccccc2Cl)c(=O)c2ccc(C)nc21,"inconclusive: 0.651 µM [falling, partial curve]"
19,Cc1nc2ccccn2c1C(=O)NNC(=S)Nc1ccccc1,"inconclusive: 11.6 µM [activator, partial curve]"
20,CCn1c(C)nc2c(C)[n+](CC(=O)c3ccc(Br)cc3)ccc21,"inconclusive: 7.31 µM [activator, partial curve]"
21,Cn1c(=O)c2c(nc(NCc3ccccc3)n2Cc2ccccc2)n(C)c1=O,"inconclusive: 29.1 µM [falling, single point]"

row,Compound,Potency
1,CCOC(=O)c1cnc2ccc(OC)cc2c1NCCc1ccccc1,active: 23.1 µM
2,Cc1ccc(S(=O)(=O)N2CCCOC2CNC(=O)C(=O)NCCCn2ccnc2)cc1 (stereo not drawn),"inconclusive: 18.4 µM [falling, partial curve, poor fit]"
3,CC(C)(C)OC(=O)CNC(=O)c1[nH]cnc1C(=O)N[C@@H](CCCCNC(=O)OC(C)(C)C)C(=O)OC(C)(C)C,"inconclusive: 9.2 µM [falling, partial curve, poor fit]"
4,COc1ccc(OC)c(-c2csc(NC(=O)c3ccc(F)cc3)n2)c1,active: 18.4 µM
5,Cc1cc(C(=O)NNc2c(Cl)cccc2Cl)no1,inactive
6,CNc1nc(N2CCc3ccccc32)ncc1F,"inconclusive: 4.11 µM [activator, partial curve]"
7,O=c1c(-c2ccc(Cl)cc2)coc2c(CN3CCOCC3)c(O)ccc12,"inconclusive: 7.31 µM [activator, partial curve, poor fit]"
8,Cc1cccc(CNC(=O)Cn2nc(C)n3c(cc4cc(F)ccc43)c2=O)c1,inactive
9,COc1ccc(NS(=O)(=O)c2ccc(OCC(=O)N3CCOCC3)cc2)cc1Cl,"inconclusive: 20.6 µM [falling, single point]"
10,CCc1ccc(OC(C)C(=O)N2CCC(c3nc4ccccc4s3)CC2)cc1 (stereo not drawn),active: 18.4 µM
11,CC(C)COc1ccc(C(=O)Nc2cccc(-c3nc4ccccc4[nH]3)c2)cc1,active: 23.1 µM
12,COc1ccccc1-c1cc2nc(C)c(CCC(=O)Nc3ccc(Br)c(C)c3)c(C)n2n1,"inconclusive: 25.9 µM [falling, partial curve]"
13,CN(c1ccc(C(=O)NCCSCc2ccc(Cl)cc2)cc1)S(=O)(=O)c1ccccc1,"inconclusive: 29.1 µM [falling, single point]"
14,Cc1ccc(Nc2c([N+](=O)[O-])ccc3c2=NC2(CCCCC2)N=3)cc1,"inconclusive: 0.13 µM [falling, full curve, poor fit]"
15,COC(=O)c1ccc(NC(=O)N2CCCC(C(=O)c3ccccc3OC)C2)cc1 (stereo not drawn),"inconclusive: 29.1 µM [falling, single point]"
16,CCn1cc(C(=O)N2CCN(c3cccc(C(F)(F)F)c3)CC2)c2cc(OC)c(OC)cc2c1=O,"inconclusive: 29.1 µM [falling, single point]"
17,CCOC(=O)N1CCC(n2c(SCC(=O)N3CCC(C)CC3)nc3ccccc3c2=O)CC1,"inconclusive: 14.6 µM [falling, partial curve, poor fit]"
18,O=C(CN1c2ccccc2Sc2ccccc21)NNC(=O)Nc1ccc(Cl)cc1,active: 18.4 µM
19,c1ccc2c(c1)ccc1[nH]c3c(c12)CCCC3,"inconclusive: 11.6 µM [activator, partial curve]"
20,Cc1ccc(CNC(=O)c2cc3c(s2)-c2ccccc2SC3)cc1,"inconclusive: 20.6 µM [falling, single point]"
21,Cc1c(Cl)cccc1NC(=O)CN1CCN(CCN=CC2=C(O)CC(c3ccccc3)CC2=O)CC1 (stereo not drawn),"inconclusive: 3.26 µM [activator, full curve, poor fit]"
